Assay in all cases: affinity purification with mass spectrometry; large-scale tandem affinity purification of Tap-tagged proteins from 2 g of total extract of wild-type, not4Δ or caf40Δ cells, 150 mM NaCl; SDS-PAGE, coomassie, bands identified by MALDI-Tof fingerprint
One assay deals with T1, Tap-tagged Not4 (yeast) (UniProt P34909).
T1 sequence: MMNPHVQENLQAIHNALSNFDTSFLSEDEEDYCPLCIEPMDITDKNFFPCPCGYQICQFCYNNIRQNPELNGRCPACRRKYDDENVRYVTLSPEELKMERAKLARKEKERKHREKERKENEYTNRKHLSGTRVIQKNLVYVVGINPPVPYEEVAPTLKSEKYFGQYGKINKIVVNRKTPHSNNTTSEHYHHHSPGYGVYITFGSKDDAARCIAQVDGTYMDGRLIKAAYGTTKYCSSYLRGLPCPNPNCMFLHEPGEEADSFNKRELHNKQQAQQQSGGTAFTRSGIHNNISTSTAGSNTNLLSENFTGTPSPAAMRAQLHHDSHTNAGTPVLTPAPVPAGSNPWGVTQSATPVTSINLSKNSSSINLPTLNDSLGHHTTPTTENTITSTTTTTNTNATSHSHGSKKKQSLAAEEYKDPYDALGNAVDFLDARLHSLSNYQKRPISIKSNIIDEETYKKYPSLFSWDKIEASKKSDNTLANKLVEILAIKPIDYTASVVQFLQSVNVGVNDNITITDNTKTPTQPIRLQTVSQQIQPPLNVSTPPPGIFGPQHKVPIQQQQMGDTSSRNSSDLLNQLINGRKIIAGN

The next assay concerns the target T2, Tap-tagged Not5 (yeast) (UniProt Q12514).
T2 sequence: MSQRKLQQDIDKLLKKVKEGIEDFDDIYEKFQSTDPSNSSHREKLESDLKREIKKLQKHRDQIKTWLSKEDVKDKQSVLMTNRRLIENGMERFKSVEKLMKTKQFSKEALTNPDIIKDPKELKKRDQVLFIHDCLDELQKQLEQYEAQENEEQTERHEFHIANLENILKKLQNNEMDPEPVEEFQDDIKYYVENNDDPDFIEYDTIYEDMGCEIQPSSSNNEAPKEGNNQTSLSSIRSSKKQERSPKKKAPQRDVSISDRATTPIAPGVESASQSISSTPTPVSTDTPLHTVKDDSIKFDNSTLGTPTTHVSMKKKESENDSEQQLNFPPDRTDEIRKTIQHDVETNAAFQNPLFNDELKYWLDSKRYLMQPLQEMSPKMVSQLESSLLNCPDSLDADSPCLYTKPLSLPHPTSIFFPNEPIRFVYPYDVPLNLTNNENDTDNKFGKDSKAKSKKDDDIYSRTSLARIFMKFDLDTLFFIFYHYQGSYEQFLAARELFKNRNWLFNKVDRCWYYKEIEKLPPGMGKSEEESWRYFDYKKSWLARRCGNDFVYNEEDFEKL

Another assay addresses T3, Tap-tagged Not2 (yeast) (UniProt P06100).
T3 sequence: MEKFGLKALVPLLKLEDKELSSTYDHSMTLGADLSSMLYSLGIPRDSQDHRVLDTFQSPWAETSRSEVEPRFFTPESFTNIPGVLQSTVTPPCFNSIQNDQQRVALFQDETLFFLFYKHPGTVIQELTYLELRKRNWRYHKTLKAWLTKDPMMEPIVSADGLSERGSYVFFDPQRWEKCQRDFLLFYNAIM

No constants are given. Whether binding was seen depends on the method and setting. In cells and extracts the contact can be indirect. Here binding means that the protein was enriched with, or labelled near, the bait; the list need not be complete. For part of these data: No binding means not detected with the bait. Sequences can lack the tags named with a protein.

B1: Not2 (protein, UniProt P06100 1-191)
chain: T3 sequence
With B1, the figures for the binding result in the assay with Tap-tagged Not4 (yeast) and with Tap-tagged Not5 (yeast) were “no binding” and “binds”, respectively.

B2: Rrp42 (protein, UniProt Q12277 1-265)
chain: MSLSVAEKSYLYDSLASTPSIRPDGRLPHQFRPIEIFTDFLPSSNGSSRIIASDGSECIVSIKSKVVDHHVENELLQVDVDIAGQRDDALVVETITSLLNKVLKSGSGVDSSKLQLTKKYSFKIFVDVLVISSHSHPVSLISFAIYSALNSTYLPKLISAFDDLEVEELPTFHDYDMVKLDINPPLVFILAVVGNNMLLDPAANESEVANNGLIISWSNGKITSPIRSVALNDSNVKSFKPHLLKQGLAMVEKYAPDVVRSLENL
As to B2, the binding entry with Tap-tagged Not2 (yeast) and in the assay with Tap-tagged Not4 (yeast) was “binds” throughout.

B3: Rrp41 (protein, UniProt P46948 1-246)
chain: MSRLEIYSPEGLRLDGRRWNELRRFESSINTHPHAADGSSYMEQGNNKIITLVKGPKEPRLKSQMDTSKALLNVSVNITKFSKFERSKSSHKNERRVLEIQTSLVRMFEKNVMLNIYPRTVIDIEIHVLEQDGGIMGSLINGITLALIDAGISMFDYISGISVGLYDTTPLLDTNSLEENAMSTVTLGVVGKSEKLSLLLVEDKIPLDRLENVLAIGIAGAHRVRDLMDEELRKHAQKRVSNASAR
B3: the binding result with Tap-tagged Not2 (yeast), in the assay with Tap-tagged Not4 (yeast) and with Tap-tagged Not5 (yeast) was “binds” throughout.

B4: Caf130 (protein, UniProt P53280 1-1122)
chain: MTKKKAATNYAERQNLASEDSSGDSVHFKDFIPLQELLKDKNYVPSVENLEKILYNETMFNDQKICSNLLLEALIITLFTTISGKSALRLIQTSSLKERKSWAQSFENNSSSYASIVLSWKDNDILLLKFLRFLLANKTAPLQINRYNLPEYKLPLSFLIVSKITIPSILLNETYNLLKDYLYSITGRIESLISCSSTFDKPALVVRKILKDYNRMIECRNFYFWYSFNAENRVNLTFSDNISLLMENDEGNAGSGLDDSRFDHQKQPREAIMGRTINDQEQIYSFELNQDGTLEIPNVMEHSLLRHELLFKILNLTTVLTPLLELQFSTLCGLVDPLMQPTPNDKHIISIDFLFQLFLGLMSQSIKTSQEHNDHYDWKFYMCFNMQKIIDATMLRLNCFDFDILNSVNNTDNAVHWKTQLHRWLPHGLNTQDLELLYMIDILAVYTIYKLYEKIPIQLNPFLFSLISLWKNLSCVILLALEIDRIEEENGTYETPLMVRATIRGAAALRSVIATVLNGLVKNNDHDFKHESLNTFMSPYGRKLCHGALYADLRSHTASLLALGASIEDVTDLFADLQSGDRFDEDIRYMFDYECEDYDESFSESDHGGLDESVVNPTEKIASGSNNVFFRRRCNCIFNDDKLVAEDGANEAFGSTNSENVEGAMHNNRNAVHNATTATSDHVVTSPNPLSVRSRSTFEFDYSGEDWRDVPRDFNMYYSPSYSFIHEPKLDVIFSLTLRGATEKLNKEESILLVRSVASCVRNEQDQMILADLESNFSASINGDVEGEGNTKMSKIDNEDLRRTTPDDIYEIWSEESAFERMLNVNHDVAWRLMDEMLMCTGYRRILIWFLTHLELKHSLIYYVFELIMGLRGKPFSGEASDQDKKDDMIYEILKKKQKNEDASGLPFSRQGPIVLSDIETKMLLQEFFMNAAIFLSSKNNEEENEDGEKISLYSLGLVRLICYMVQTLIANDKFFFTKSECTFELQTLLMTWIGILPEAKDLFFKIKTRLAMEEEDSADTMQHEGRKNSDIEKKLNAKPASELNLKLLNLFPSKPANKDDSSPINTLRSFIADYSFDTQVNPPGRRVVFYDGKILPLPKADKPIPLHEYITLAELDVGDSE
B4: the binding result in the assay with Tap-tagged Not4 (yeast) is “no binding”.

B5: Ccr4 (protein, UniProt P31384 1-837)
chain: MNDPSLLGYPNVGPQQQQQQQQQQHAGLLGKGTPNALQQQLHMNQLTGIPPPGLMNNSDVHTSSNNNSRQLLDQLANGNANMLNMNMDNNNNNNNNNNNNNNNGGGSGVMMNASTAAVNSIGMVPTVGTPVNINVNASNPLLHPHLDDPSLLNNPIWKLQLHLAAVSAQSLGQPNIYARQNAMKKYLATQQAQQAQQQAQQQAQQQVPGPFGPGPQAAPPALQPTDFQQSHIAEASKSLVDCTKQALMEMADTLTDSKTAKKQQPTGDSTPSGTATNSAVSTPLTPKIELFANGKDEANQALLQHKKLSQYSIDEDDDIENRMVMPKDSKYDDQLWHALDLSNLQIFNISANIFKYDFLTRLYLNGNSLTELPAEIKNLSNLRVLDLSHNRLTSLPAELGSCFQLKYFYFFDNMVTTLPWEFGNLCNLQFLGVEGNPLEKQFLKILTEKSVTGLIFYLRDNRPEIPLPHERRFIEINTDGEPQREYDSLQQSTEHLATDLAKRTFTVLSYNTLCQHYATPKMYRYTPSWALSWDYRRNKLKEQILSYDSDLLCLQEVESKTFEEYWVPLLDKHGYTGIFHAKARAKTMHSKDSKKVDGCCIFFKRDQFKLITKDAMDFSGAWMKHKKFQRTEDYLNRAMNKDNVALFLKLQHIPSGDTIWAVTTHLHWDPKFNDVKTFQVGVLLDHLETLLKEETSHNFRQDIKKFPVLICGDFNSYINSAVYELINTGRVQIHQEGNGRDFGYMSEKNFSHNLALKSSYNCIGELPFTNFTPSFTDVIDYIWFSTHALRVRGLLGEVDPEYVSKFIGFPNDKFPSDHIPLLARFEFMKTNTGSKKV
For B5, the binding result with Tap-tagged Not2 (yeast) and with Tap-tagged Not4 (yeast) was “binds” in each case.

B6: Caf1 (protein, UniProt P39008 1-433)
chain: MQSMNVQPRVLAVGGEQFFSQRQASEQHQQQNMGPQVYSPKVNRARMFPQGMPVNTINGSVNQEMNNAYLLKQKNEPLLTQQQQQQQQQQQPFNIGTPVSVASLPPGLNVLQQQQQQQQQQQQQQQGVGLNRPLASQLPKHLTNQSMPPIFLPPPNYLFVRDVWKSNLYSEFAVIRQLVSQYNHVSISTEFVGTLARPIGTFRSKVDYHYQTMRANVDFLNPIQLGLSLSDANGNKPDNGPSTWQFNFEFDPKKEIMSTESLELLRKSGINFEKHENLGIDVFEFSQLLMDSGLMMDDSVTWITYHAAYDLGFLINILMNDSMPNNKEDFEWWVHQYMPNFYDLNLVYKIIQEFKNPQLQQSSQQQQQQQYSLTTLADELGLPRFSIFTTTGGQSLLMLLSFCQLSKLSMHKFPNGTDFAKYQGVIYGIDGDQ
For B6, the binding entry in the assay with Tap-tagged Not2 (yeast) and with Tap-tagged Not4 (yeast) was “binds” each time.

The record behind these values is PMC2727002.
